Laboratory results: patent publication US20050214809

Legend:
phi29 DNA polymerase = target: T1, phi29 DNA polymerase (UniProt P03680); experiment: activity assay; conditions: RCA extension, 37 C, 10 mM MgCl2; no signal without polymerase; purified recombinant protein
T1 sequence (looked up, limits assumed): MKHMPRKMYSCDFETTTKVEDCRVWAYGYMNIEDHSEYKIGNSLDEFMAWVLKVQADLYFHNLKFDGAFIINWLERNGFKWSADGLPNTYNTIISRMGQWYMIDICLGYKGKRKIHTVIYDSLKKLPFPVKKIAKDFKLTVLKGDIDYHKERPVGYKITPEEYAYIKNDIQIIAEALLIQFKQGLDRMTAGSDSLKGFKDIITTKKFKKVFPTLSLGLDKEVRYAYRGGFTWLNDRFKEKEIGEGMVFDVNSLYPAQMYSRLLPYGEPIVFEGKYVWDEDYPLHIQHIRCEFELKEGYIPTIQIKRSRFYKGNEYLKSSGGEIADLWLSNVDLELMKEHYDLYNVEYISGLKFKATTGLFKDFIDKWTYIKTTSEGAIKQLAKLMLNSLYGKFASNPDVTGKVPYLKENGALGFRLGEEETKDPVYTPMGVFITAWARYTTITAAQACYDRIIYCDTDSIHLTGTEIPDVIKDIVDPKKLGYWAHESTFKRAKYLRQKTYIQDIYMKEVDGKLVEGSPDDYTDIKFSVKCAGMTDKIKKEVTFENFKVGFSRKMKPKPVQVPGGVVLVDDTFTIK

thermostable RNase H = experiment: enzyme reaction in vitro; conditions: ribonucleotides at positions 11-14 (GAGA), rest DNA; 50 C, 1x RNase H buffer, 10 pmol probe, 5 units; 0.2 pmol target distinguishable in 5 min; purified recombinant protein; label: fluorescein and TAMRA on dT at positions 10 and 15
[1] = target: T2, RNase H (Escherichia coli) (UniProt P0A7Y4); experiment: enzyme reaction in vitro; conditions: ribonucleotides at positions 11-14 (GAGA), rest DNA; 37 C, 10 mM MgCl2, phi29 buffer; target generated as RCA product; purified recombinant protein; label: fluorescein and TAMRA on dT at positions 10 and 15
T2 sequence (looked up, limits assumed): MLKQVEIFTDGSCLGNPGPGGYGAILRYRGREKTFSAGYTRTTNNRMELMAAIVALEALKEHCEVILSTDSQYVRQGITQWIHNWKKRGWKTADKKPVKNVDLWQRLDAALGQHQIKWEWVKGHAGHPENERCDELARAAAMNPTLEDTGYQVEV

## CTAAATAACCAGGTACAATATGCCATTTGAGATTTTTGAATTGGTCTTAGAACGCCATTTTGGCTGATTAAAAACGAGTG / TGGCGTTCTAAGACC [circularized RCA substrate with 15-mer primer]
phi29 DNA polymerase
  activity on this sequence: active

## TATGCCATTTGAGATTTTTGAATT
Thermostable RNase H
  activity on this sequence: active
[1]
  activity on this sequence: active

For part of these data: Protein sequences can lack the tags named with them. For part of these data: Construct, isoform or probe ends are uncertain for at least one entry.
